Measurements reported in article PMC5085252.

The chains behind the UniProt entries cited, without tags or fusion partners. Where a name states a change or a piece, a line headed by the entry shows the natural chain unless it says otherwise.
UniProt Q9S9K7: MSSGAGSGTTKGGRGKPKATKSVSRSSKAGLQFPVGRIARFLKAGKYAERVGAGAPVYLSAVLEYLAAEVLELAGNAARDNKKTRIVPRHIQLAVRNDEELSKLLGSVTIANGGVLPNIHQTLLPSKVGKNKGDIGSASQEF
UniProt Q9FJE8: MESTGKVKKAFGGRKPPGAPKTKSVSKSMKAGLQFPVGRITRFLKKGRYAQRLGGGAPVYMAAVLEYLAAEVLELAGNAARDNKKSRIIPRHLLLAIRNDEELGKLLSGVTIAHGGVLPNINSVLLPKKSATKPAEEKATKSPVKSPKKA
UniProt O04848: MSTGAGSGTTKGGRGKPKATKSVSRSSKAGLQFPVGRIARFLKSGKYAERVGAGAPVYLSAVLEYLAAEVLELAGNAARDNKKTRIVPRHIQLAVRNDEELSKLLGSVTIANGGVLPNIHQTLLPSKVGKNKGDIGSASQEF
UniProt Q9LD28: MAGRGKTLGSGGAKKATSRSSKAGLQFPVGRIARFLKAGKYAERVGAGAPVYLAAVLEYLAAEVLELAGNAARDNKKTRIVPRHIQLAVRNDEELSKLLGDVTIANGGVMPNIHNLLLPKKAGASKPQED
UniProt O81826: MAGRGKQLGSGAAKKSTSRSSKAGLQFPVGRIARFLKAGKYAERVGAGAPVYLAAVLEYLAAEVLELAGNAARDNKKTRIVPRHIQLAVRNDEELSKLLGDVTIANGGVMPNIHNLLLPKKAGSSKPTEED
UniProt Q9C944: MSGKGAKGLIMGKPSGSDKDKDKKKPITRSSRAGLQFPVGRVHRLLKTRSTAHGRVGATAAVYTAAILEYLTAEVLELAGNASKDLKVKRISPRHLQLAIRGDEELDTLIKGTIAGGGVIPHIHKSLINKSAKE
UniProt O23628: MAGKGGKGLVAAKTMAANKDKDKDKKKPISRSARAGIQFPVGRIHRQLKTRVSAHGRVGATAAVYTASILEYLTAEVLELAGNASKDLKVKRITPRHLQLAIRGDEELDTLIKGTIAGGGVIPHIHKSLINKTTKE
UniProt Q9LHQ5: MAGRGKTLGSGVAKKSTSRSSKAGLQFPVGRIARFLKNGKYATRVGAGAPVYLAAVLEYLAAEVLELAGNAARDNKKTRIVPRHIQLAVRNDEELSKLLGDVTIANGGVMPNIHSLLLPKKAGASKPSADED
UniProt Q94F49: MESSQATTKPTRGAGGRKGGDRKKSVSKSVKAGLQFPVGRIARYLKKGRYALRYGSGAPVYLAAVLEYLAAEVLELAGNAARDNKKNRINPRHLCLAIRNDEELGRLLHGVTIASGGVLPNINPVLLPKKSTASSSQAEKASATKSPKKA
UniProt Q9C681: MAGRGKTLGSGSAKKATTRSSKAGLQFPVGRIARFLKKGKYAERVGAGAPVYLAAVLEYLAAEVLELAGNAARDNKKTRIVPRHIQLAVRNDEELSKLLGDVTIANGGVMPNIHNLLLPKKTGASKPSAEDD

T1: GFP-THAL (N-terminal GFP-tagged Thallo) (Arabidopsis thaliana) (UniProt Q8L3P4)
T1 sequence: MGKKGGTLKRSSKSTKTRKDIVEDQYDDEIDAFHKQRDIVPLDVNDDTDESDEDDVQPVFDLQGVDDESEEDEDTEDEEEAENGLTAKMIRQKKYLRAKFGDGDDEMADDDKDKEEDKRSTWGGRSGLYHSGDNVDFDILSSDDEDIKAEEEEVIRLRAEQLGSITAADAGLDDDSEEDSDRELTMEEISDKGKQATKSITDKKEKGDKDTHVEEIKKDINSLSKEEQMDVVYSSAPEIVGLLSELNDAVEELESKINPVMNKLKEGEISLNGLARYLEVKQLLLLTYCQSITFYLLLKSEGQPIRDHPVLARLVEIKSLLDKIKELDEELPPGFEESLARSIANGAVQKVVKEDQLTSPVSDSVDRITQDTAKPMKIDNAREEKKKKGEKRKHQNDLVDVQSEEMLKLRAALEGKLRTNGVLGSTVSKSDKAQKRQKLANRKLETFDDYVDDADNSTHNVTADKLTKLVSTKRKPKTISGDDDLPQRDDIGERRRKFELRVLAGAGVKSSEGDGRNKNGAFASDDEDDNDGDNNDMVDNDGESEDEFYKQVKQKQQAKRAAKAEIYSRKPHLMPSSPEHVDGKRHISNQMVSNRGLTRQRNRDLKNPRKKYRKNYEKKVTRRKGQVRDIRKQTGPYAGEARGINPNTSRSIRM


The molecules below were run against T1, GFP-THAL (N-terminal GFP-tagged Thallo) (Arabidopsis thaliana) (assay: affinity purification with mass spectrometry; immunoprecipitation of GFP-THAL from total proteins of 8-d-old rescued THALpro::GFP-THAL/thal-2 seedlings; proteins also obtained in the WT sample eliminated).

Row | Molecule | binding
1 | histone 2A protein H2A.X.3 (from UniProt Q9S9K7 1-142) | binds
2 | histone 2A protein H2A.W.6 (from UniProt Q9FJE8 1-150) | binds
3 | histone 2A protein H2A.X.5 (from UniProt O04848 1-142) | binds
4 | histone 2A protein H2A.1 (from UniProt Q9LD28 1-130) | binds
5 | histone 2A protein H2A.2 (from UniProt O81826 1-131) | binds
6 | DEAD box RNA helicase RH3 (EMB1138) (protein, UniProt Q8L7S8 61-748) AVATPNSVLSEEAFKSLGLSDHDEYDLDGDNNNVEADDGEELAISKLSLPQRLEESLEKRGITHLFPIQRAVLVPALQGRDIIARAKTGTGKTLAFGIPIIKRLTEEAGDYTAFRRSGRLPKFLVLAPTRELAKQVEKEIKESAPYLSTVCVYGGVSYTIQQSALTRGVDVVVGTPGRIIDLIEGRSLKLGEVEYLVLDEADQMLAVGFEEAVESILENLPTKRQSMLFSATMPTWVKKLARKYLDNPLNIDLVGDQDEKLAEGIKLYAIATTSTSKRTILSDLITVYAKGGKTIVFTQTKRDADEVSLALSNSIATEALHGDISQHQRERTLNAFRQGKFTVLVATDVASRGLDIPNVDLVIHYELPNDPETFVHRSGRTGRAGKEGSAILMHTSSQKRTVRSLERDVGCHFEFISPPTVGDLLESSADQVVATLNGVHPDSIKFFSATAQKLYEEKGTDALAAALAHLSGFSQPPSSRSLLSHEKGWVTLQLIRDPTNARGFLSARSVTGFLSDLYRTAADEVGKIFLIADDRIQGAVFDLPEEIAKELLEKDVPEGNSLSMITKLPPLQDDGPSSDNYGRFSSRDRMPRGGGGSRGSRGGRGGSSRGRDSWGGDDDRGSRRSSGGGSSWSRGGSSSRGSSDDWLIGGRSSSSSRAPSRERSFGGSCFICGKSGHRATDCPDKRGF | binds

The remaining lines, values ahead:

Row | binding | Molecule
7 | binds | histone 2A protein H2A.Z.9 (from UniProt Q9C944 1-134)
8 | binds | histone 2A protein H2A.Z.11 (from UniProt O23628 1-136)
9 | binds | histone 2A protein H2A.13 (from UniProt Q9LHQ5 1-132)
10 | binds | histone 2A protein H2A.W.7 (from UniProt Q94F49 1-150)
11 | binds | histone 2A protein H2A.10 (from UniProt Q9C681 1-132)

Results are given in words; binding and its absence hold for the method and conditions named. In cells and extracts the contact can be indirect. These calls come from enrichment with a bait or labelling near it, and not all partners need be listed. Sequences can lack the tags named with a protein.
